Results as given in US10391080B2, “Ketorolac for the treatment of cancer” (Cipla Limited, priority 2016, dated 2019).
At least one compound was matched to its structure with a doubt left.

What was measured:
[1] = test system: RXF 1183L; assay: In vitro 3D combination study, clonogenic assay, Bliss independence; format: cell-based, human; conditions: RXF 1183L cells seeded in soft agar, concentration-dependent
Method: (§1) The objective of this study was to assess anti-tumor efficacy of ketorolac in combination with sunitinib in a 5×5 matrix combination format against tumor cell lines of renal cancer using a clonogenic assay with image analysis as read-out.
(§2) The clonogenic assay was carried out in a 96 well plate format using ultra low attachment plates. For each test cells were prepared as described above, and assay plates were prepared as follows: each test well contained a layer of semi-solid medium with tumor cells (50 μl), and a second layer of medium supernatant with or without test compounds (100 μl). The cell layer consisted of 3×10^3 to 1×10^4 tumor cells per well, which were seeded in 50 μl/well cell culture medium (IMDM, supplemented with 20% (v/v) fetal calf serum, 0.01% (w/v) gentamicin, and 0.4% (w/v) agar). The soft agar layer was immediately covered with 90 μl of the same culture medium without agar. After 24 h the test compounds were added after serial dilution in IMDM and transfer in cell culture medium, and left on the cells for the duration of the experiment (continuous exposure, 100 μL total drug overlay). Every plate included six untreated control wells and drug-treated groups in a layout as shown above. […] At the time of maximum colony formation, counts were performed with an automatic image analysis system (Celllnsight NXT, Thermo Scientific). […]

[2] = test system: RXF A-498; assay: as above; format: cell-based, human; conditions: RXF A-498 cells seeded in soft agar, concentration-dependent
Method: as §1, §2

## CCN(CC)CCNC(=O)c1c(C)[nH]c(/C=C2\C(=O)Nc3ccc(F)cc32)c1C [Sunitinib]
[1]
  Colony formation, single agent: inhibited colony formation
[2]
  Colony formation, single agent: inhibited colony formation
